Some of the results follow.
Assays:
Assay in all cases: log2 fold change, soluble protein after heating vs DMSO (PISA); higher = thermal stabilisation; K562 lysate, 10 uM; active = over 0.2 and 3.5 SD of the protein, either way, in both replicates (recomputed)
vemurafenib = compound: CCCS(=O)(=O)Nc1ccc(F)c(C(=O)c2c[nH]c3ncc(-c4ccc(Cl)cc4)cc23)c1F [vemurafenib]
Summary of the method: (§1)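 Thermal stability, expressed as log-two fold change relative to solvent controls, is given from duplicates. Crude K562 extract in PBS pH 7.4 with 1 mM MgCl2, at 1 mg/mL protein, was treated with 10 μM compound for 30 min and heated in aliquots for 3 min across 48°C-58°C. After pooling, adjustment to 0.5% NP-40 at 4°C and centrifugation at 21,000xg for 90 min, supernatant protein was measured by TMTpro 16plex LC-MS/MS with channel sums equalised.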

Chains of the proteins cited; added tags and fusions are not shown. Lines headed by an entry give the natural chain unless they say otherwise; changes in a name come on top.
UniProt Q8TBZ3: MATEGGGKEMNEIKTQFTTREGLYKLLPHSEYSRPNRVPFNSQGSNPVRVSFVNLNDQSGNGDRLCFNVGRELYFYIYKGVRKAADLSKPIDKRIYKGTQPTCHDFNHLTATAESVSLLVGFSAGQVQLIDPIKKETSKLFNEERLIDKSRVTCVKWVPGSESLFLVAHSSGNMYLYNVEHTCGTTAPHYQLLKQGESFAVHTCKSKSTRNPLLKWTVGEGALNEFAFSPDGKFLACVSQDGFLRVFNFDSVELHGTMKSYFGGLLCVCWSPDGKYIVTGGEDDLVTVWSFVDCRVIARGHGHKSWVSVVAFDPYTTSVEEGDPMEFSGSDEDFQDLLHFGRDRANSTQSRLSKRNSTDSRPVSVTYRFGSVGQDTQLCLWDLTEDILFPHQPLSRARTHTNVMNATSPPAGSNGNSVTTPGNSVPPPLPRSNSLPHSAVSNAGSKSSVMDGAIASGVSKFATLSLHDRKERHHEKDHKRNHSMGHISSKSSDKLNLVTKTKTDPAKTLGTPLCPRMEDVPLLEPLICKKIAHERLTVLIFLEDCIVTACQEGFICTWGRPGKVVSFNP
UniProt Q96AX1: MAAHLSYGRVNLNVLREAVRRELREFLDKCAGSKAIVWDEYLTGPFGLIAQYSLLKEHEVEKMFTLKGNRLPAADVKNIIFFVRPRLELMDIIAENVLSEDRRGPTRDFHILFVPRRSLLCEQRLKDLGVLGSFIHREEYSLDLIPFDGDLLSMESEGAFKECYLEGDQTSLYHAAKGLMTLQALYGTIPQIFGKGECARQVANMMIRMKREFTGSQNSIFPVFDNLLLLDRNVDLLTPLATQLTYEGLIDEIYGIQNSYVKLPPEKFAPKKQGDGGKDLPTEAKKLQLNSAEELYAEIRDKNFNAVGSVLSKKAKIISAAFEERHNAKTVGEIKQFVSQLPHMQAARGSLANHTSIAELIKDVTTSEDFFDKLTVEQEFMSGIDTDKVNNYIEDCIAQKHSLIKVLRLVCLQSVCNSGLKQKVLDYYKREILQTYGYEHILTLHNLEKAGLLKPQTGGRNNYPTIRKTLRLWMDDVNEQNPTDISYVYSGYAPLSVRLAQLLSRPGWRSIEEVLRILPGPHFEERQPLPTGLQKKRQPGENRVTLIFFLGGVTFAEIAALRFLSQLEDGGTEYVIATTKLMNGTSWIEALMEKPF
UniProt Q8N1B4: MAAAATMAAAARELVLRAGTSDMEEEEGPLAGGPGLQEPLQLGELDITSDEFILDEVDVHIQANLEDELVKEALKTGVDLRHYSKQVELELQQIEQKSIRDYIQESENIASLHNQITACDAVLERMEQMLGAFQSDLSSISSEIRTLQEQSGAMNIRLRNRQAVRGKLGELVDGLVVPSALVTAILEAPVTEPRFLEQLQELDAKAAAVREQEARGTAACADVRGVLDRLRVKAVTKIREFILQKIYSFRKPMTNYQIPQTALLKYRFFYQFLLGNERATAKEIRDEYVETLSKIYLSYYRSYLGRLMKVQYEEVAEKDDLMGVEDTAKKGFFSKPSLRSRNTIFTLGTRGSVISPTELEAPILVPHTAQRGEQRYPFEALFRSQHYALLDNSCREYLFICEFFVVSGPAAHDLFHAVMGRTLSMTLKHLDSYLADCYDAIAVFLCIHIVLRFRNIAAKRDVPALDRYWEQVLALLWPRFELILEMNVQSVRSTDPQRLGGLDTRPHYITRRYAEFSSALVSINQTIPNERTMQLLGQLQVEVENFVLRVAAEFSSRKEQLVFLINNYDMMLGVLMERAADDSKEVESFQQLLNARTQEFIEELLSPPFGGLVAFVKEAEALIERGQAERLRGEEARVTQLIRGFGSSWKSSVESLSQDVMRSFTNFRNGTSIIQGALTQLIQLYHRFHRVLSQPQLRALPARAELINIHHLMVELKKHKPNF
UniProt Q15061: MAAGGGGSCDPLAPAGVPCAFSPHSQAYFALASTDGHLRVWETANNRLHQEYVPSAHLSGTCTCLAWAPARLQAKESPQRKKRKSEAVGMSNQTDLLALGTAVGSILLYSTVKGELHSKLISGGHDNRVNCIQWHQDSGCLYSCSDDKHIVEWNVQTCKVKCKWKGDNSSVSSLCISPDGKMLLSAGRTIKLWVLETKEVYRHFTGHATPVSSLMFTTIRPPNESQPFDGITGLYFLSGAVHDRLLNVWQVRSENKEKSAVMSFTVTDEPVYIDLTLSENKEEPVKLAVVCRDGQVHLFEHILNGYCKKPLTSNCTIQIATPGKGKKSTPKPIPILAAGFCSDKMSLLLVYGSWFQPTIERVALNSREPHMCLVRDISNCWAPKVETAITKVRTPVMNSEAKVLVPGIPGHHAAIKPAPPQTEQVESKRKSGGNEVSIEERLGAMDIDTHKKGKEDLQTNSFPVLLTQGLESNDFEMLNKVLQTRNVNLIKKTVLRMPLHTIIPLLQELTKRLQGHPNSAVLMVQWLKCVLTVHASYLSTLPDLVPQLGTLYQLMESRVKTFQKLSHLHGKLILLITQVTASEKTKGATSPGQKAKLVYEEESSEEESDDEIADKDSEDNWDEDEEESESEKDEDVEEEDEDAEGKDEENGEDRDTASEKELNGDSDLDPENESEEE
UniProt Q8NI36: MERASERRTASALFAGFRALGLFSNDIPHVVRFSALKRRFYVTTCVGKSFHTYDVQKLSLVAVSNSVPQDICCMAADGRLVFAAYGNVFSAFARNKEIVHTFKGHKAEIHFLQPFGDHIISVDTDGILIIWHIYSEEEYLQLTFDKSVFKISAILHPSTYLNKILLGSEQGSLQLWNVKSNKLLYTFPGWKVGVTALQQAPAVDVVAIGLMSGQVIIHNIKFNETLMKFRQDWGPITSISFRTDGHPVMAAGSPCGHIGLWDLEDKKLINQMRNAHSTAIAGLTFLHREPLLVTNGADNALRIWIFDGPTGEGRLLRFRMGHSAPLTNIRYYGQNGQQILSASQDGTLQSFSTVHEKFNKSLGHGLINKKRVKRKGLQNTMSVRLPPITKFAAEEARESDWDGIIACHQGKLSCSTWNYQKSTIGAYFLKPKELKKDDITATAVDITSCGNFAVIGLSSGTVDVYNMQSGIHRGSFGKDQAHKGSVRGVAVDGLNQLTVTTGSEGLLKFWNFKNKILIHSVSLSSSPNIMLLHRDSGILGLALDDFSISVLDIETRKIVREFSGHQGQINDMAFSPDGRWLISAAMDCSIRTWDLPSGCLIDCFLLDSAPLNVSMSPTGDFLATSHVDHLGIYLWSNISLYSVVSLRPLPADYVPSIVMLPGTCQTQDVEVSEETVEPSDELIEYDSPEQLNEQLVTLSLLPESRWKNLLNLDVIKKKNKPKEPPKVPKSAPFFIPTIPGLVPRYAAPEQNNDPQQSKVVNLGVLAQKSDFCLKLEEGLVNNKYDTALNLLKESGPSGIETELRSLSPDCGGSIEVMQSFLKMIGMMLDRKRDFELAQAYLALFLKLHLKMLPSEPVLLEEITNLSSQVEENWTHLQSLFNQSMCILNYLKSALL
UniProt A3KMH1: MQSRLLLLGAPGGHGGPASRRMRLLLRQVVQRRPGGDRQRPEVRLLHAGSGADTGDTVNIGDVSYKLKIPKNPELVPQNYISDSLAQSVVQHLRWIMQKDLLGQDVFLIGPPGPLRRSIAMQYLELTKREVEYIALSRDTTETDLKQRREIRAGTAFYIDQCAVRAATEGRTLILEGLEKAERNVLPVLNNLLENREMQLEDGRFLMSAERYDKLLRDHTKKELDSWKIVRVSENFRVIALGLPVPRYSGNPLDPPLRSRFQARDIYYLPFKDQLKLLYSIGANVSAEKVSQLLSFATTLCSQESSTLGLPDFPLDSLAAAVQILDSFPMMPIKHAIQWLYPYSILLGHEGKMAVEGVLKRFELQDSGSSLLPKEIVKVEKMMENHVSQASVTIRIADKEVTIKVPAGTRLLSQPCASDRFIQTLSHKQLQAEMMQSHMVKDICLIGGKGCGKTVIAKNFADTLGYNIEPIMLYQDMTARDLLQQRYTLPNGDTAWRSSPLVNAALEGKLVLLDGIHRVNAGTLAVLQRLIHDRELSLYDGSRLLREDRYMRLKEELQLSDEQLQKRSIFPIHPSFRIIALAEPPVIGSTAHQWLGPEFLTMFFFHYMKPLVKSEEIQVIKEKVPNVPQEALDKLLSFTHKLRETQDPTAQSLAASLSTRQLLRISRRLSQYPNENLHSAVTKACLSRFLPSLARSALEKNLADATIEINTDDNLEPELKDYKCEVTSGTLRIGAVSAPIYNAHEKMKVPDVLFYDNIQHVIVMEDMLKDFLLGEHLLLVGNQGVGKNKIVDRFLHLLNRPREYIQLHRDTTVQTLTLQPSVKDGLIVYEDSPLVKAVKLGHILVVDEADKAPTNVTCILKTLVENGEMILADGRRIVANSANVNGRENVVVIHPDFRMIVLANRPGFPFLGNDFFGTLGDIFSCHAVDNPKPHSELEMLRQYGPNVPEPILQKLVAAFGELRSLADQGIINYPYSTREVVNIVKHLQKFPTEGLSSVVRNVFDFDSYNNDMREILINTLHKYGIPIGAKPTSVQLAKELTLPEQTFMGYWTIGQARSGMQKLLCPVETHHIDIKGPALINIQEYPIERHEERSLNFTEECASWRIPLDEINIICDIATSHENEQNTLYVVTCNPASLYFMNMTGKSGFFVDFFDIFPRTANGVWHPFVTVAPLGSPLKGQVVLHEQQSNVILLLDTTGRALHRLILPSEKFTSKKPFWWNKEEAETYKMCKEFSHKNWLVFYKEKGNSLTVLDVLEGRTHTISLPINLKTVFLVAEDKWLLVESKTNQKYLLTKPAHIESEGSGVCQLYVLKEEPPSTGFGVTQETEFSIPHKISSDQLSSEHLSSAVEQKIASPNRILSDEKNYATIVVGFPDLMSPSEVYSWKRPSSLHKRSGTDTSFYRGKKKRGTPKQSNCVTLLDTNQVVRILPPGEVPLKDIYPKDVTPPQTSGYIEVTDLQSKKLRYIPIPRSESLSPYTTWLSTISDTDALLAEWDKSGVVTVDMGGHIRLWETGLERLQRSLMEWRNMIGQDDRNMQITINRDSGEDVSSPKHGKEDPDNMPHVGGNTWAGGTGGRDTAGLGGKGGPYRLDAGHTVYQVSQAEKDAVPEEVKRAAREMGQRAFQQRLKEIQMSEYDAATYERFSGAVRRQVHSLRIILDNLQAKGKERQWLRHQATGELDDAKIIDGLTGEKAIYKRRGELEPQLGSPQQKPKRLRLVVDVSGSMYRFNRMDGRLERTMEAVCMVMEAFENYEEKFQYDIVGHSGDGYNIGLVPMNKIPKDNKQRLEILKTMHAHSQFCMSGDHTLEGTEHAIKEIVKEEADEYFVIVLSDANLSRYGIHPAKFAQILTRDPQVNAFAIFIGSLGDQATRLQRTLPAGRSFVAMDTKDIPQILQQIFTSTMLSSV
UniProt Q7Z5K2: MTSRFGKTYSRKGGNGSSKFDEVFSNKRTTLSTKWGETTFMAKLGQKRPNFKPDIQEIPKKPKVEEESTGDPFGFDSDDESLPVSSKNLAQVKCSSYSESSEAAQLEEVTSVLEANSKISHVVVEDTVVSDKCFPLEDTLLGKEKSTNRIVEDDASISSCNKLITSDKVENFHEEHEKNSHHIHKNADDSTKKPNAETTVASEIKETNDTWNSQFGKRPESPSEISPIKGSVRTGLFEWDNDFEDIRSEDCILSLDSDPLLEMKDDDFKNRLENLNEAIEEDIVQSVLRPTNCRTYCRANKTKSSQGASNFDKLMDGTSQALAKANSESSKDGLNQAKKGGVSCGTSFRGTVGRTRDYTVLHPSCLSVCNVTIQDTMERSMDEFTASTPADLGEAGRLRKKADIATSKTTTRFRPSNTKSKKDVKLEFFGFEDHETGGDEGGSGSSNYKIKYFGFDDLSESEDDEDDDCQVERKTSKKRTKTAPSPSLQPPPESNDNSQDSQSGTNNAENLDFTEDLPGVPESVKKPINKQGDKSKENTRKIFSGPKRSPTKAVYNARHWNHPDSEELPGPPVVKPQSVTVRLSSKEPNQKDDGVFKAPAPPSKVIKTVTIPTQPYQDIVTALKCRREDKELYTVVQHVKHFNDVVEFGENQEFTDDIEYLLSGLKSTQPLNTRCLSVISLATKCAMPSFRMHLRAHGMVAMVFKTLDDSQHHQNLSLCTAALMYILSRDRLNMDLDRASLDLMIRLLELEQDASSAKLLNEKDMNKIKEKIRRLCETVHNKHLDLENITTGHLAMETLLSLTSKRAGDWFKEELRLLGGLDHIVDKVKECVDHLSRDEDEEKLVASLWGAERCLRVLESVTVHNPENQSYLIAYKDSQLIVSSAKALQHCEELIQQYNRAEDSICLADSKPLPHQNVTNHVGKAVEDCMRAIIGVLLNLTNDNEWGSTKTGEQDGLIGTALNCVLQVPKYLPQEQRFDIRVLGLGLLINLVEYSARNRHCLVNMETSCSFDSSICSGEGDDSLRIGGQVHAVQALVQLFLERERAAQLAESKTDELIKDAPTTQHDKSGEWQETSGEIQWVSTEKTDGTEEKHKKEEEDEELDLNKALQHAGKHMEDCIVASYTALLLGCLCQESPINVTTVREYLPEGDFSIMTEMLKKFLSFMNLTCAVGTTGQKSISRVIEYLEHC

[1] = compound: CCCS(=O)(=O)Nc1ccc(F)c(C(=O)c2c[nH]c3ncc(Cl)cc23)c1F
Summary of the method: as §1

barasertib = compound: CCN(CCCOc1ccc2c(Nc3cc(CC(=O)Nc4cccc(F)c4)[nH]n3)ncnc2c1)CCOP(=O)(O)O [barasertib]
Summary of the method: as §1

[2] = compound: CC[C@@H]1C(=O)N(C)c2cnc(Nc3ccc(C(=O)NC4CCN(C)CC4)cc3OC)nc2N1C1CCCC1
Summary of the method: as §1

volasertib = compound: CC[C@@H]1C(=O)N(C)c2cnc(Nc3ccc(C(=O)N[C@H]4CC[C@H](N5CCN(CC6CC6)CC5)CC4)cc3OC)nc2N1C(C)C [volasertib]
Summary of the method: as §1

[3] = compound: CCn1c(C(=O)N(C2CC2)C2CC2)cc2c3c(ncn3C)c(Nc3cc(C)n(C)n3)nc21
Summary of the method: as §1

[4] = compound: CCn1cc(-c2ccnc3[nH]c(-c4cccc(CN(C)C)c4)cc23)c(-c2ccc(NC(=O)N(C)C)cc2)n1
Summary of the method: as §1

[5] = compound: CN1CCC(CNc2ccc3ncc(-c4cccc(OC(F)(F)F)c4)n3n2)CC1
Summary of the method: as §1

saracatinib = compound: CN1CCN(CCOc2cc(OC3CCOCC3)c3c(Nc4c(Cl)ccc5c4OCO5)ncnc3c2)CC1 [saracatinib]
Summary of the method: as §1

sotrastaurin = compound: CN1CCN(c2nc(C3=C(c4c[nH]c5ccccc45)C(=O)NC3=O)c3ccccc3n2)CC1 [sotrastaurin]
Summary of the method: as §1

Measured: log2 fold change

WBP2 (UniProt Q969T9)
inactive: vemurafenib -0.009 | [1] 0.021 | barasertib -0.018 | [2] 0.056 | volasertib 0.018 | [3] 0.011 | [4] 0.155 | [5] -0.028 | saracatinib 0.003 | sotrastaurin -0.033

WASHC2C (UniProt Q9Y4E1)
inactive: vemurafenib 0.045 | [1] 0.015 | barasertib -0.03 | [2] 0.029 | volasertib 0.022 | [3] -0.053 | [4] -0.189 | [5] 0.105 | saracatinib 0.026 | sotrastaurin 0.043

WDR20 isoform 7 (UniProt Q8TBZ3)
inactive: vemurafenib 0.047 | [1] 0 | barasertib 0.087 | [2] 0.054 | volasertib -0.039 | [3] -0.017 | [4] 0.039 | [5] -0.039 | saracatinib 0.065 | sotrastaurin -0.036

VPS16 (UniProt Q9H269)
inactive: vemurafenib 0.038 | [1] 0.009 | barasertib 0.007 | [2] 0.063 | volasertib -0.04 | [3] 0.028 | [4] -0.049 | [5] -0.015 | saracatinib -0.017 | sotrastaurin -0.002

WDR75 (UniProt Q8IWA0)
inactive: vemurafenib -0.005 | [1] 0.02 | barasertib 0.095 | [2] -0.157 | volasertib -0.058 | [3] 0.021 | [4] 0.031 | [5] -0.061 | saracatinib 0.023 | sotrastaurin 0.004

WDR1 (UniProt O75083)
inactive: vemurafenib -0.02 | [1] -0.008 | barasertib 0.007 | [2] -0.052 | volasertib -0.013 | [3] 0.006 | [4] 0.147 | [5] -0.071 | saracatinib -0.013 | sotrastaurin -0.023

VPS26C (UniProt O14972)
inactive: vemurafenib 0.069 | [1] 0.002 | barasertib 0.006 | [2] -0.047 | volasertib -0.028 | [3] -0.045 | [4] -0.209 | [5] 0.082 | saracatinib -0.037 | sotrastaurin 0.039

VWA5A (UniProt O00534)
inactive: vemurafenib 0.041 | [1] 0.058 | barasertib 0.034 | [2] 0.016 | volasertib -0.013 | [3] 0.009 | [4] -0.201 | [5] 0.085 | saracatinib -0.004 | sotrastaurin -0.002

VPS33A (UniProt Q96AX1)
inactive: vemurafenib -0.012 | [1] 0.022 | barasertib 0.037 | [2] 0.018 | volasertib -0.042 | [3] 0.018 | [4] -0.041 | [5] -0.033 | saracatinib -0.001 | sotrastaurin 0.03

VPS52 (UniProt Q8N1B4)
inactive: vemurafenib 0.004 | [1] 0.013 | barasertib 0.021 | [2] -0.031 | volasertib -0.043 | [3] 0.024 | [4] -0.034 | [5] -0.026 | saracatinib -0.016 | sotrastaurin 0.014

WDR44 (UniProt Q5JSH3)
inactive: vemurafenib 0.01 | [1] -0.007 | barasertib 0.01 | [2] 0.027 | volasertib 0.01 | [3] -0.031 | [4] -0.035 | [5] 0.062 | saracatinib 0.011 | sotrastaurin 0.006

VPS13D (UniProt Q5THJ4)
inactive: vemurafenib -0.017 | [1] -0.077 | barasertib 0.107 | [2] -0.035 | volasertib -0.012 | [3] -0.082 | [4] 0.036 | [5] -0.1 | saracatinib 0.104 | sotrastaurin 0.038

WDR48 (UniProt Q8TAF3)
inactive: vemurafenib 0.006 | [1] 0.02 | barasertib -0.005 | [2] 0.004 | volasertib 0.007 | [3] -0.008 | [4] -0.171 | [5] 0.066 | saracatinib 0.013 | sotrastaurin 0.008

WDR43 (UniProt Q15061)
inactive: vemurafenib -0.05 | [1] 0.03 | barasertib 0.002 | [2] -0.037 | volasertib 0 | [3] 0.027 | [4] -0.029 | [5] 0.016 | saracatinib 0.04 | sotrastaurin 0.033

VSIR (UniProt Q9H7M9)
inactive: vemurafenib 0.032 | [1] -0.021 | barasertib -0.035 | [2] 0.129 | volasertib 0.061 | [3] -0.01 | [4] -0.011 | [5] 0.013 | saracatinib 0.053 | sotrastaurin 0.053

WDR26, A0A499FIZ0
inactive: vemurafenib -0.033 | [1] 0.002 | barasertib -0.003 | [2] 0.009 | volasertib 0.006 | [3] 0.014 | [4] -0.029 | [5] 0.015 | saracatinib -0.026 | sotrastaurin 0.004

VPS8 (UniProt Q8N3P4)
inactive: vemurafenib 0.048 | [1] 0.031 | barasertib 0.045 | [2] -0.033 | volasertib -0.057 | [3] 0.093 | [4] -0.053 | [5] -0.007 | saracatinib -0.005 | sotrastaurin 0.021

WDR55 (UniProt Q9H6Y2)
inactive: vemurafenib 0.029 | [1] -0.056 | barasertib 0.046 | [2] -0.068 | volasertib 0.035 | [3] 0.02 | [4] -0.026 | [5] 0.028 | saracatinib 0.007 | sotrastaurin 0.049

Taken from the results shown (seven entries):
VPS13D (UniProt Q5THJ4)
inactive: vemurafenib -0.017 | [1] -0.077 | barasertib 0.107 | [2] -0.035 | volasertib -0.012 | [3] -0.082 | [4] 0.036 | [5] -0.1 | saracatinib 0.104 | sotrastaurin 0.038

WDR48 (UniProt Q8TAF3)
inactive: vemurafenib 0.006 | [1] 0.02 | barasertib -0.005 | [2] 0.004 | volasertib 0.007 | [3] -0.008 | [4] -0.171 | [5] 0.066 | saracatinib 0.013 | sotrastaurin 0.008

WDR43 (UniProt Q15061)
inactive: vemurafenib -0.05 | [1] 0.03 | barasertib 0.002 | [2] -0.037 | volasertib 0 | [3] 0.027 | [4] -0.029 | [5] 0.016 | saracatinib 0.04 | sotrastaurin 0.033

VSIR (UniProt Q9H7M9)
inactive: vemurafenib 0.032 | [1] -0.021 | barasertib -0.035 | [2] 0.129 | volasertib 0.061 | [3] -0.01 | [4] -0.011 | [5] 0.013 | saracatinib 0.053 | sotrastaurin 0.053

WDR26, A0A499FIZ0
inactive: vemurafenib -0.033 | [1] 0.002 | barasertib -0.003 | [2] 0.009 | volasertib 0.006 | [3] 0.014 | [4] -0.029 | [5] 0.015 | saracatinib -0.026 | sotrastaurin 0.004

VPS8 (UniProt Q8N3P4)
inactive: vemurafenib 0.048 | [1] 0.031 | barasertib 0.045 | [2] -0.033 | volasertib -0.057 | [3] 0.093 | [4] -0.053 | [5] -0.007 | saracatinib -0.005 | sotrastaurin 0.021

WDR55 (UniProt Q9H6Y2)
inactive: vemurafenib 0.029 | [1] -0.056 | barasertib 0.046 | [2] -0.068 | volasertib 0.035 | [3] 0.02 | [4] -0.026 | [5] 0.028 | saracatinib 0.007 | sotrastaurin 0.049

Carrying on.

VPS26A (UniProt O75436)
inactive: vemurafenib 0.012 | [1] 0.004 | barasertib 0.006 | [2] -0.014 | volasertib 0.027 | [3] -0.026 | [4] -0.082 | [5] 0.06 | saracatinib 0.003 | sotrastaurin 0.017

VPS25 (UniProt Q9BRG1)
inactive: vemurafenib -0.006 | [1] 0.015 | barasertib 0.094 | [2] 0.005 | volasertib 0.002 | [3] 0.005 | [4] 0.164 | [5] -0.048 | saracatinib 0.012 | sotrastaurin -0.027

WDR89 (UniProt Q96FK6)
inactive: vemurafenib -0.147 | [1] 0.033 | barasertib -0.042 | [2] 0.024 | volasertib 0.029 | [3] -0.043 | [4] -0.091 | [5] 0.052 | saracatinib -0.079 | sotrastaurin -0.034

WWP2 (UniProt O00308)
inactive: vemurafenib 0.02 | [1] -0.016 | barasertib 0.089 | [2] -0.047 | volasertib -0.013 | [3] 0.122 | [4] 0.024 | [5] 0.019 | saracatinib 0.052 | sotrastaurin -0.06

WDR36 (UniProt Q8NI36)
inactive: vemurafenib 0.014 | [1] 0.018 | barasertib 0.011 | [2] -0.058 | volasertib -0.022 | [3] 0.034 | [4] 0.012 | [5] -0.076 | saracatinib -0.015 | sotrastaurin 0.044

VPS13C (UniProt Q709C8)
inactive: vemurafenib 0.018 | [1] 0.028 | barasertib 0.12 | [2] 0.112 | volasertib -0.017 | [3] -0.01 | [4] 0 | [5] 0.02 | saracatinib 0.028 | sotrastaurin 0.026

VWA8 (UniProt A3KMH1)
inactive: vemurafenib 0.061 | [1] 0.024 | barasertib 0.152 | [2] -0.173 | volasertib 0.031 | [3] 0.015 | [4] 0.123 | [5] -0.075 | saracatinib 0.055 | sotrastaurin 0.079

WAPL isoform 3 (UniProt Q7Z5K2)
inactive: vemurafenib 0.028 | [1] 0.004 | barasertib 0 | [2] 0.01 | volasertib -0.035 | [3] 0.006 | [4] -0.083 | [5] 0.019 | saracatinib -0.001 | sotrastaurin 0.015

VPS37B (UniProt Q9H9H4)
inactive: vemurafenib -0.001 | [1] 0.003 | barasertib -0.012 | [2] 0.047 | volasertib -0.011 | [3] 0.005 | [4] -0.018 | [5] 0.04 | saracatinib 0.048 | sotrastaurin 0.01

WDR41 (UniProt Q9HAD4)
inactive: vemurafenib -0.018 | [1] 0.036 | barasertib -0.07 | [2] 0.089 | volasertib 0.005 | [3] 0.053 | [4] -0.032 | [5] 0.053 | saracatinib 0.017 | sotrastaurin 0.043

VRK3 (UniProt Q8IV63)
inactive: vemurafenib 0.044 | [1] 0.044 | barasertib 0.013 | [2] 0.016 | volasertib -0.023 | [3] 0.081 | [4] -0.002 | [5] 0.063 | saracatinib 0.012 | sotrastaurin -0.003

VKORC1 (UniProt Q9BQB6)
inactive: vemurafenib -0.035 | [1] 0.072 | barasertib 0.139 | [2] 0.009 | volasertib 0.051 | [3] 0.023 | [4] -0.046 | [5] 0.094 | saracatinib -0.059 | sotrastaurin -0.022
